# Microarray screen: hit calls

Targets (5′ to 3′):
T1: SAM-II riboswitch RNA pseudoknot, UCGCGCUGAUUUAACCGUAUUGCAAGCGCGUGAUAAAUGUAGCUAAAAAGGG. Hit rate about 1% of about 21,000 compounds.
T2: TPP riboswitch RNA three-way junction, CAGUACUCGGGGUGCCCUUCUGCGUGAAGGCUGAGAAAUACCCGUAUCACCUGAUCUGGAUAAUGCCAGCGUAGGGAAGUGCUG. Hit rate about 0.7% of about 24,000 compounds.
T3: PreQ1 riboswitch RNA pseudoknot, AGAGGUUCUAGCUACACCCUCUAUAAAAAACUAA. From B. subtilis. Hit rate about 0.7% of about 24,000 compounds.

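The test is a small-molecule microarray: each compound is printed twice on a reactive slide, and binding shows as fluorescence of the labelled oligonucleotide after washing. For the PreQ1, TPP and SAM-II riboswitches the laboratory earlier reported (doi:10.1038/s41467-019-09493-3) 1 µM RNA, 2 h, and a rule that included a mean Z-score above 3 (spot signal-to-noise against the whole library), a score well above that on a control array, and duplicate spots agreeing (coefficient of variation under 100). The data file gives only the calls; its cut-offs may differ, and compounds hitting several targets are kept. The calls come from the array alone, and fixing a compound to the slide can hide its binding.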
A compound is marked hit if it was called a hit and none if it was screened but was not.
Compounds were drawn at random from those tested, without regard to their results.
A target missing from an entry has no call listed here.

Compound: CC(C)c1cc(C(=O)N2CC[C@H]3CC[C@@H](C2)N3)no1
T1: none
T2: none
T3: none

Compound: CC(C)(C)[N+]([O-])=Cc1ccc(S(=O)(=O)[O-])cc1S(=O)(=O)[O-].[Na+].[Na+]
T1: none
T2: none
T3: none

Compound: Cc1nc(N)sc1C(=O)N1CCC(c2nccn2Cc2ccccn2)CC1
T1: none
T2: none
T3: none

Compound: Cc1cccc(NC(=O)c2sc3nc4c(cc3c2N)CCC4)c1C
T1: none
T2: none
T3: none

Compound: Cc1ccc([C@H]2CN(S(=O)(=O)c3cccnc3)C[C@@H]2N)o1
T1: none
T2: none
T3: none

Compound: C[C@H](CCC(=O)O)[C@H]1CC[C@H]2[C@@H]3[C@H](O)C[C@@H]4C[C@H](O)CC[C@]4(C)[C@@H]3CC[C@]12C
T1: none
T2: none
T3: none

Compound: CO[C@@]1(C)C[C@@H](O)C12CCN(C(=O)CCCN1CCCC1)CC2
T1: none
T2: none
T3: none

Compound: CC(C)c1ccc(OCC(=O)NCCO)cc1
T1: none
T2: none
T3: none

Compound: C=CCNC(=O)C1COc2ccccc2O1 (stereo unspecified)
T1: none
T2: none
T3: none

Compound: CSc1nc(C)cc(Nc2ccccc2)n1
T2: none
T3: none

Compound: CCOC(=O)c1ccc(Oc2ccc3c(c2)OCO3)c(N)c1
T1: none
T2: none
T3: none

Compound: O=C(CCC(=O)Nc1cccc([N+](=O)[O-])c1)NCCO
T1: none
T2: none
T3: none

Compound: CCOC(=O)c1ccccc1NC1c2ccccc2C(=O)N1Cc1ccccc1Cl (stereo unspecified)
T1: none
T2: none
T3: none

Compound: Nc1c(Cl)cc(Cl)cc1C(=O)O
T1: none
T2: none
T3: none

Compound: CCOC(=O)C1=C(C)OC(N)=C(C(=O)OCC)C12C(=O)N(C)c1ccccc12 (stereo unspecified)
T1: none
T2: none
T3: none

Compound: Nc1nonc1C(=O)NCCNCc1ccccc1OCc1ccccc1F
T2: none
T3: none

Compound: CC1(C)CC(=O)C2=C(C1)OC(N)=C(C#N)C2c1cccnc1 (stereo unspecified)
T1: none
T2: none
T3: none

Compound: O=c1c2c(-c3ccccc3)csc2ncn1CCCO
T2: none
T3: none

Compound: O=C(O)c1ccc(NCc2nc3ccccc3n2CCOc2ccccc2Cl)cc1
T1: none
T2: none
T3: none

Compound: Cc1cc(C(=O)N2CCN(c3cccc(Cl)c3)CC2)n(-c2ccccc2)n1
T1: none
T2: none
T3: none

Compound: COc1cccc(-c2nc3c([nH]2)CCN(C(=O)[C@@H](O)Cc2ccccc2)C3)c1
T1: none
T2: none
T3: none

Compound: COc1ccc(NC(=O)CC(C)=O)c(OC)c1
T1: none
T2: none
T3: none

Compound: CN(C)CCOc1ccc2c(c1)C(=O)/C(=C\c1ncc([N+](=O)[O-])n1C)C2.O=S(=O)(O)O
T1: none
T2: none
T3: none

Compound: CC1(C)CC(Nc2ccc(Cl)cc2)CCO1 (stereo unspecified)
T2: none
T3: none

Compound: Cc1cc(C(F)(F)F)nc2sc(C(=O)Nc3ccc(Cl)cc3)c(N)c12
T1: none
T2: none
T3: none

For reference, 2 entries once more:

{"compound": "CCOC(=O)C1=C(C)OC(N)=C(C(=O)OCC)C12C(=O)N(C)c1ccccc12", "stereo": "stereo unspecified", "T1": "none", "T2": "none", "T3": "none"}
{"compound": "CC1(C)CC(=O)C2=C(C1)OC(N)=C(C#N)C2c1cccnc1", "stereo": "stereo unspecified", "T1": "none", "T2": "none", "T3": "none"}

Calls as published in the ROBIN set (doi:10.1002/anie.202211358).